This is one part of the list.

Chains of the proteins cited; added tags and fusions are not shown. Lines headed by an entry give the natural chain unless they say otherwise; changes in a name come on top.
UniProt Q05BV3: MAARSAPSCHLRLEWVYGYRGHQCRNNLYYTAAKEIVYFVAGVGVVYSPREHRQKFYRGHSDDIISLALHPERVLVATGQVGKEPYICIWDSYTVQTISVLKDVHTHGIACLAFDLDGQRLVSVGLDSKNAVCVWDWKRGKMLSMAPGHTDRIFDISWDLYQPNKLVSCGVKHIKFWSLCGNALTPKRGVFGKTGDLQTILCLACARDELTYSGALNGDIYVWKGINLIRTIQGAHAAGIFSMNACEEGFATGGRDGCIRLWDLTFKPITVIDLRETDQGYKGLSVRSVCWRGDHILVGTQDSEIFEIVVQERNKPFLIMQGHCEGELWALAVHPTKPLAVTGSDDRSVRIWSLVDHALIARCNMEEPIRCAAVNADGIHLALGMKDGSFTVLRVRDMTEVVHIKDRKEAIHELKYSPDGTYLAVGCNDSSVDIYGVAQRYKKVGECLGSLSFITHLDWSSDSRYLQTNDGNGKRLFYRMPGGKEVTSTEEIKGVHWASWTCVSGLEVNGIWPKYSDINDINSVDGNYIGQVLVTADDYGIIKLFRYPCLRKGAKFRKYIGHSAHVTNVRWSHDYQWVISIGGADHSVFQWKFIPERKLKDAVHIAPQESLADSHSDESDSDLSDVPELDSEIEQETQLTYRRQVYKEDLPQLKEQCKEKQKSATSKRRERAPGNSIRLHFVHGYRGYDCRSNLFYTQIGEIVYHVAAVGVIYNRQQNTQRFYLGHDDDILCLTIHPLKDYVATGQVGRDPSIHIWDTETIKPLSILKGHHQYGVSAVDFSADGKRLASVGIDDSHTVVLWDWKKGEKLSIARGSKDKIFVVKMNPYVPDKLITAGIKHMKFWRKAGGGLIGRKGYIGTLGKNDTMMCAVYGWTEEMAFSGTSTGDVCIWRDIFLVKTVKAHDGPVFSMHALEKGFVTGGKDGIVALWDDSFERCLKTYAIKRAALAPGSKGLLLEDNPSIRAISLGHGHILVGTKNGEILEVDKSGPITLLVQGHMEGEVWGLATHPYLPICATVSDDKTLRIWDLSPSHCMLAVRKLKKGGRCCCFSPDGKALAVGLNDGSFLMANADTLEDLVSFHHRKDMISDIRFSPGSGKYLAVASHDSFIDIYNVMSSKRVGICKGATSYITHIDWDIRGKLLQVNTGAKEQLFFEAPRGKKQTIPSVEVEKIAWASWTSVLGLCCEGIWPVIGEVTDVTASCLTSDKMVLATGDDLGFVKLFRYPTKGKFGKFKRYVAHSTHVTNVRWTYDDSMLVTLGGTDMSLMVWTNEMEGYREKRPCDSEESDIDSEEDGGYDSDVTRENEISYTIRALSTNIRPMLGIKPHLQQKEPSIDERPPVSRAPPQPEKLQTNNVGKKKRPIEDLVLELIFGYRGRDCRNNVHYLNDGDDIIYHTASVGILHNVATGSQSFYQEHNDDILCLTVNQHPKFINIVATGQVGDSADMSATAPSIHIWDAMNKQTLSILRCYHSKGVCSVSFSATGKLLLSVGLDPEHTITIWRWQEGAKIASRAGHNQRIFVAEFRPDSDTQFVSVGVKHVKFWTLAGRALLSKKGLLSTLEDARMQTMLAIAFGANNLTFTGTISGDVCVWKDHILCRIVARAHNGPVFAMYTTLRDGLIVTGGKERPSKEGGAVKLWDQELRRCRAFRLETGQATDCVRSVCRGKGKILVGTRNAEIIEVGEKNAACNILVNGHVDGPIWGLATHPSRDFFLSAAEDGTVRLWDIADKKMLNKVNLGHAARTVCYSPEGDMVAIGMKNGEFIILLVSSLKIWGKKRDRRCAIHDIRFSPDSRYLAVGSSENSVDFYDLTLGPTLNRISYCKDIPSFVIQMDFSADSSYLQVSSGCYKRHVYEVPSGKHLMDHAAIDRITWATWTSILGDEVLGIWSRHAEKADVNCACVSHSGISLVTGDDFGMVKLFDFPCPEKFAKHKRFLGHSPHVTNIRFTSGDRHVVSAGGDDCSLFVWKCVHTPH
UniProt P11171, whole entry, looked up: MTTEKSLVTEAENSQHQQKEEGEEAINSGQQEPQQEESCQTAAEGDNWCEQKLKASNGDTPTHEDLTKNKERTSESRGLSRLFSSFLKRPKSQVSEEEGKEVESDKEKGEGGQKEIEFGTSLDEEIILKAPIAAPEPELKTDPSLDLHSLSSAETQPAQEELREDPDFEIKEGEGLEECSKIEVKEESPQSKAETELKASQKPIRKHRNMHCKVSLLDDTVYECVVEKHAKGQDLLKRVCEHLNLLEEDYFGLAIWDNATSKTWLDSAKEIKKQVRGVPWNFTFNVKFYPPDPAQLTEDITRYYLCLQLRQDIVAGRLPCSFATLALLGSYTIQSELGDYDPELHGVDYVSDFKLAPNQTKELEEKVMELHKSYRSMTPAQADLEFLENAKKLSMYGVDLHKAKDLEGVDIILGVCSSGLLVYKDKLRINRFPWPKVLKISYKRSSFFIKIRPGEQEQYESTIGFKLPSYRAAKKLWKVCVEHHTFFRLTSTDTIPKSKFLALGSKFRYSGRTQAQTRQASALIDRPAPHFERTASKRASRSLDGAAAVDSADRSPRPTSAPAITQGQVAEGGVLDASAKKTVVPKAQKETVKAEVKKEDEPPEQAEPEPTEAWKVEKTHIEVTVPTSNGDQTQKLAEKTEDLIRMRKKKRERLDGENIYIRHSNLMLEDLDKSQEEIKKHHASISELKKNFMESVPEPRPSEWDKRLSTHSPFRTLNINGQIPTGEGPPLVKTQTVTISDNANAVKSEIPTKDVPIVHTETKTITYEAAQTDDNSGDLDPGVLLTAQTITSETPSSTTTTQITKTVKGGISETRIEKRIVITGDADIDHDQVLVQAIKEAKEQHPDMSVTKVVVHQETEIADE
UniProt O00418: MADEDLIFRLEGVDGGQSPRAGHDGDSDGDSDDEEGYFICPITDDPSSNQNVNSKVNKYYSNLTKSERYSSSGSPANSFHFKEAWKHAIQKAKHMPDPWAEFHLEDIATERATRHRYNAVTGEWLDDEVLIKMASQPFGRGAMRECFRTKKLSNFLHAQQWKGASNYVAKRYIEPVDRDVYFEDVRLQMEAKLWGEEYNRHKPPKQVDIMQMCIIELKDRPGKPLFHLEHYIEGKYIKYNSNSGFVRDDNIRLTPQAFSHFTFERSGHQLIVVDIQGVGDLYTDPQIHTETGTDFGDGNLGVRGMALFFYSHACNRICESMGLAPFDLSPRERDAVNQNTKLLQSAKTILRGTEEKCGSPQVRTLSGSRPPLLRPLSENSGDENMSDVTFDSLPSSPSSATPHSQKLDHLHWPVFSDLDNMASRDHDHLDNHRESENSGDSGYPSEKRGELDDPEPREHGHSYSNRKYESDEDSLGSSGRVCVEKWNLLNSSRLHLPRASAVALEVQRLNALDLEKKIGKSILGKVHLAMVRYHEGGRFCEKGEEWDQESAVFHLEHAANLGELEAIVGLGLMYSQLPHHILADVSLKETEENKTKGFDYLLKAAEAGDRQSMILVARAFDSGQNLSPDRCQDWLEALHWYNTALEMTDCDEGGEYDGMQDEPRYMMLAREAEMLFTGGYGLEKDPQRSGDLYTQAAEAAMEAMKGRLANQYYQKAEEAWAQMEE
UniProt Q9H0I2: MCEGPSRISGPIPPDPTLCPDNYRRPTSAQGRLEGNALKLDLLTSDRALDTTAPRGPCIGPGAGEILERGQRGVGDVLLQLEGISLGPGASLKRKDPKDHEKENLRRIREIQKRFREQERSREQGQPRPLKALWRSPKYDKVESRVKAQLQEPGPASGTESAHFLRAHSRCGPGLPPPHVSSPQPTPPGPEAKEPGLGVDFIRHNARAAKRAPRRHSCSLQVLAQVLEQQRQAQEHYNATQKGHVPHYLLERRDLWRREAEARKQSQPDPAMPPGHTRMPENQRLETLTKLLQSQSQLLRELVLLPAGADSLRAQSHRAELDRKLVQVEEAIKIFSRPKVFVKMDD
UniProt Q9NZJ5: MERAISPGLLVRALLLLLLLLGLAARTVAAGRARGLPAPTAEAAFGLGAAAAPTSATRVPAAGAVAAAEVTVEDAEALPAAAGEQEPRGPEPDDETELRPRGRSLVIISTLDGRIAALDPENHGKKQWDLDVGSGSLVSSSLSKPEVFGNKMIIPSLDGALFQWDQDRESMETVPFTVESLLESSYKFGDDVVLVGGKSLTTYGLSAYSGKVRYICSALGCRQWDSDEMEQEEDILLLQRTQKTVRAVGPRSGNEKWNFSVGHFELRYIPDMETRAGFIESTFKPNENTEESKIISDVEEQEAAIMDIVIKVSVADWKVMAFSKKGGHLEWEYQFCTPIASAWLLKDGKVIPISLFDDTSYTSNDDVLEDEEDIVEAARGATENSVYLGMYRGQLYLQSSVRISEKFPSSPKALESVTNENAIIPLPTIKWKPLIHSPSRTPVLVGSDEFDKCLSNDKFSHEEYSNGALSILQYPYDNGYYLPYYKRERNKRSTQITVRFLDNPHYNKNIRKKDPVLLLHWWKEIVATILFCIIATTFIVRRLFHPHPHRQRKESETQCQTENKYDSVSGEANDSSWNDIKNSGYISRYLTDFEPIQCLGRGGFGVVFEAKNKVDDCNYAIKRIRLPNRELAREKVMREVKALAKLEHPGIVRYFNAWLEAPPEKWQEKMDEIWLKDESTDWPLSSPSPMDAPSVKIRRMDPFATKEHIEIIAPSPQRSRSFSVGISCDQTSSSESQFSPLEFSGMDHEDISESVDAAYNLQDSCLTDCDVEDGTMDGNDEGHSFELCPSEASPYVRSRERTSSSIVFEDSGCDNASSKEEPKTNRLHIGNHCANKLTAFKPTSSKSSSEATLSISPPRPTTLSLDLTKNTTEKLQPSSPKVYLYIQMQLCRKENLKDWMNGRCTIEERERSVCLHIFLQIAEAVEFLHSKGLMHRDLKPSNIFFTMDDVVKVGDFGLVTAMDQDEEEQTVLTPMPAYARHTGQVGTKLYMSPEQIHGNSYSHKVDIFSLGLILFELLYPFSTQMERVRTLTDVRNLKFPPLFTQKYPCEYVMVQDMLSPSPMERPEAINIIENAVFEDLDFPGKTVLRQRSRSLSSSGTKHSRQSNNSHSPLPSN
UniProt Q96C92: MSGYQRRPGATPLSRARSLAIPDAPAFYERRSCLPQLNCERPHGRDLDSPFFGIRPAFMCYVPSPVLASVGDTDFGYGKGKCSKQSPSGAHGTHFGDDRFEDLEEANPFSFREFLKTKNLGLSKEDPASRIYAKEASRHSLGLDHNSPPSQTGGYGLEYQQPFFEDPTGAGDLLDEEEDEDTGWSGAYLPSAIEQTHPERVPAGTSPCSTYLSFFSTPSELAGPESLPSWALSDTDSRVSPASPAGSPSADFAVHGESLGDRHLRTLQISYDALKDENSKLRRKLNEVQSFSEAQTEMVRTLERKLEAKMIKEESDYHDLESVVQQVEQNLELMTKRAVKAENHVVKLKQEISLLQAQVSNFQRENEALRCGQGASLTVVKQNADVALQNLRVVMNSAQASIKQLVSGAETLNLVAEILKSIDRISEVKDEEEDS
UniProt Q9UI10, whole entry, looked up: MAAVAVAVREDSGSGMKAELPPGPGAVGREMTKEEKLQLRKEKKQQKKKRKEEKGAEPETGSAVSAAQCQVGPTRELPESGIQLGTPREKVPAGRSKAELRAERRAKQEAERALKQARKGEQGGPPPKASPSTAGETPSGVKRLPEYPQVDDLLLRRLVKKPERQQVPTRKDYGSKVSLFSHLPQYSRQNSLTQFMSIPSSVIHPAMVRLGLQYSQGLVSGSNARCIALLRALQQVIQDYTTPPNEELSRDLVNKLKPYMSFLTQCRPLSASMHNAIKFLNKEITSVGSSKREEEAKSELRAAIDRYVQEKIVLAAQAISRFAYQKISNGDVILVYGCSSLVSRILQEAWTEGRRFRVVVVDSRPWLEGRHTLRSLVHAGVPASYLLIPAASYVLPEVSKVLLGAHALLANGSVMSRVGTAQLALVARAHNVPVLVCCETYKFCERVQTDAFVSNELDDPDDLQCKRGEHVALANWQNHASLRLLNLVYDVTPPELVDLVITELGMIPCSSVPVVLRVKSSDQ
UniProt O75355: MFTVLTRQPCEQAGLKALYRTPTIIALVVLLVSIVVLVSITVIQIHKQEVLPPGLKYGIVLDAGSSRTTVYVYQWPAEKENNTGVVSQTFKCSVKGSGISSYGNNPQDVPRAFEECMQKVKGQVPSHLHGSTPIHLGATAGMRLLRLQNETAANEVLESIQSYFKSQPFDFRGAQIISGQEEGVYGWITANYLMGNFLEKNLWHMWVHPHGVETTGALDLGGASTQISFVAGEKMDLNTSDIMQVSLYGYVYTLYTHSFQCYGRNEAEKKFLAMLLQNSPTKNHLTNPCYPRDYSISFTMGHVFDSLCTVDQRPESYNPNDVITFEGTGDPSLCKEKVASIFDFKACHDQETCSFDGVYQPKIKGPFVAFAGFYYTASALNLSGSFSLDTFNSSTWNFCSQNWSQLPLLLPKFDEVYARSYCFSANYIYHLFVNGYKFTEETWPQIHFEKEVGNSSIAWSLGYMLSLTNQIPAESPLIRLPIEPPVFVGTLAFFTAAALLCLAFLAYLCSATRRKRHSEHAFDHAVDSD

Compound in the first experiment: CC1=C(C=C(C=C1)NC(=O)C2=CC(=CC=C2)N(C)C)NC(=O)C3=CC=C(C=C3)O
The experiment is described as follows: log2 fold change, soluble protein after heating vs DMSO (PISA); higher = thermal stabilisation; K562 cells, 10 uM, 30 min; active = over 0.2 and 3.5 SD of the protein, either way, in both replicates (recomputed). In short, it runs like this:
(§1)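 Thermal stability values are relative to control samples and come from duplicates. They are expressed as log2 fold changes. For measurement, K562 cells (2×10^6 cells/mL) received 10 μM compound for 30 min, and aliquots were heated for 3 min over 48°C-58°C, pooled, and extracted at 4°C in PBS with 0.5% NP-40. Soluble protein, the supernatant after 21,000xg for 90 min, was quantified by TMTpro 16plex LC-MS/MS with equalised channel sums.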
For the target EML5 isoform 5 (UniProt Q05BV3), the log2 fold change is inactive: -0.04.
Same read-out and setting: to ELAVL4 (UniProt P26378) belongs inactive: 0; to EIF4B (UniProt F8VP89), inactive: -0.086.
Consider ENO3 (UniProt K7EKN2), for which the log2 fold change was inactive: 0.029.
As for EIF5A2 (UniProt Q9GZV4), the log2 fold change was inactive: -0.143.
Same read-out and setting: to EIF3I (UniProt Q5TFK1) belongs inactive: -0.119; to EIF5A (UniProt I3L397), inactive: -0.118.
In the case of EPB41L1 (UniProt Q9H4G0), the log2 fold change was inactive: -0.143.
Regarding EPB41 isoform 4 (UniProt P11171), the log2 fold change was inactive: -0.022.
Still for that read-out and setting: to EP400P1 isoform 6 (UniProt Q6ZTU2) belongs inactive: -0.044; to ELMO2 (UniProt Q96JJ3), inactive: 0.039.
Turning to EIF4E3 (UniProt Q8N5X7), the log2 fold change was inactive: 0.021.
Turning to EFCAB2 (UniProt Q5VUJ9), the log2 fold change is inactive: -0.099.
On the same count and under the same terms, to EEF2K (UniProt O00418) belongs inactive: 0.006.

Compound in another experiment: CC1=CC=C(C=C1)SC2=C3C=C(SC3=CN=C2)C(=O)N
Described as above. The essentials:
as §1
Turning to EML5 isoform 5 (UniProt Q05BV3), the log2 fold change was inactive: -0.014.
Regarding ELP5 isoform 2 (UniProt Q8TE02), the log2 fold change was inactive: -0.079.
ENKD1 (UniProt Q9H0I2): the log2 fold change was inactive: -0.068.
Regarding EIF4B (UniProt F8VP89), the log2 fold change is inactive: -0.444.
EIF2AK3 (UniProt Q9NZJ5): the log2 fold change is inactive: 0.036.
Consider EPB41L1 (UniProt Q9H4G0), for which the log2 fold change is inactive: -0.028.
For the target EPB41 isoform 4 (UniProt P11171), the log2 fold change is inactive: -0.074.
With ENTR1 (UniProt Q96C92), the log2 fold change was inactive: -0.091.
As to EIF2B4 (UniProt Q9UI10), the log2 fold change was inactive: -0.278.
For the target ENTPD3 (UniProt O75355), the log2 fold change was inactive: 0.078.
In the case of EEF2K (UniProt O00418), the log2 fold change was inactive: 0.043.

Compound in another experiment: CC1=NC(=CC=C1)C2=C(N=C(N2)C(C)(C)C)C3=CC4=NC=CN=C4C=C3
The description is as above. The essentials:
as §1
Take EML5 isoform 5 (UniProt Q05BV3): the log2 fold change was inactive: -0.057.
Consider ELAVL4 (UniProt P26378), for which the log2 fold change is inactive: 0.069.
Take EIF4B (UniProt F8VP89): the log2 fold change is inactive: 0.084.
With EIF2AK3 (UniProt Q9NZJ5), the log2 fold change was inactive: -0.043.
On to EPB41, A0A2R8Y783, for which the log2 fold change is inactive: -0.113.
As for EIF3I (UniProt Q5TFK1), the log2 fold change is inactive: -0.055.
EPB41L1 (UniProt Q9H4G0): the log2 fold change was inactive: -0.088.
Turning to EIF2B4 (UniProt Q9UI10), the log2 fold change is inactive: -0.034.
On to ENTPD3 (UniProt O75355), for which the log2 fold change is inactive: 0.824.
Still for that read-out and setting: to ELK1 (UniProt P19419) belongs inactive: 0.012; to EIF4E3 (UniProt Q8N5X7), inactive: -0.026.

Compound in a further experiment: CCCCN(Cc1ccc(C(=O)NO)cc1)C(=O)Nc1ccccc1 [Nexturastat A]
Described as above. In short, it runs like this: as §1
Take EIF3E (UniProt E5RIT4): the log2 fold change was inactive: 0.398.
As to EIF2AK3 (UniProt Q9NZJ5), the log2 fold change is inactive: -0.595.
For ELOA (UniProt Q14241), the log2 fold change is inactive: 0.212.
For the target EPB41L1 (UniProt Q9H4G0), the log2 fold change is inactive: -0.053.
Same read-out and setting: the figure for ENPP2 isoform 2 (UniProt Q13822) is inactive: -0.1.
On to ELOVL7 (UniProt A1L3X0), for which the log2 fold change was inactive: 0.016.
Regarding EIF2B4 (UniProt Q9UI10), the log2 fold change was inactive: 0.125.
For EEF1AKMT1 (UniProt Q8WVE0), the log2 fold change is inactive: -0.028.
As to EEF2K (UniProt O00418), the log2 fold change is inactive: 0.201.

Compound in another experiment: CCCS(=O)(=O)Nc1ccc(F)c(C(=O)c2c[nH]c3ncc(-c4ccc(Cl)cc4)cc23)c1F [vemurafenib]
Described as above. The essentials:
as §1
As for EML5 isoform 5 (UniProt Q05BV3), the log2 fold change is inactive: -0.011.
As to ENKD1 (UniProt Q9H0I2), the log2 fold change is inactive: -0.048.
The same measure, in the same setting: to ENAH (UniProt Q8N8S7) belongs inactive: -0.532; to EIF4G1 (UniProt Q04637), inactive: -0.071.
Same read-out and setting: to EPB41L1 (UniProt Q9H4G0) belongs inactive: -0.093; to ENTR1 (UniProt Q96C92), inactive: 0.06.
The same measure, in the same setting: the figure for EIF2B4 (UniProt Q9UI10) is inactive: -0.02; for EEF2K (UniProt O00418) it is inactive: 0.089.

Compound in another experiment: CCCS(=O)(=O)Nc1ccc(F)c(C(=O)c2c[nH]c3ncc(Cl)cc23)c1F
The experiment is described as above. In short, it runs like this: as §1
With EML5 isoform 5 (UniProt Q05BV3), the log2 fold change is inactive: 0.003.
Same read-out and setting: to ELP5 isoform 2 (UniProt Q8TE02) belongs inactive: -0.149; to ENKD1 (UniProt Q9H0I2), inactive: 0.078.
On to EIF4B (UniProt F8VP89), for which the log2 fold change is inactive: -0.233.
As for EIF2AK3 (UniProt Q9NZJ5), the log2 fold change was inactive: -0.161.
Take EPB41L1 (UniProt Q9H4G0): the log2 fold change was inactive: -0.044.
On the same count and under the same terms, the figure for EPB41 isoform 4 (UniProt P11171) is inactive: 0.128; for ENTR1 (UniProt Q96C92) it is inactive: -0.105; for EIF2B4 (UniProt Q9UI10) it is inactive: -0.051.
ENTPD3 (UniProt O75355): the log2 fold change is inactive: -0.052.
As for EEF2K (UniProt O00418), the log2 fold change was inactive: 0.157.

Compound in a further experiment: CCCc1cc(C)[nH]c(=O)c1CNC(=O)c1cc(-c2ccnc(N3CCN(C)CC3)c2)cc2c1cnn2C(C)C
The experiment is described as above. In short, it runs like this: as §1
Turning to EP400 (UniProt Q96L91), the log2 fold change is inactive: -0.184.
As to EML5 isoform 5 (UniProt Q05BV3), the log2 fold change was inactive: -0.185.
Turning to EHBP1 (UniProt Q8NDI1), the log2 fold change was inactive: -0.028.
Regarding EIF4B (UniProt F8VP89), the log2 fold change is inactive: 0.013.
With EIF5A2 (UniProt Q9GZV4), the log2 fold change was inactive: -0.108.
Regarding EEF1AKMT2 (UniProt Q5JPI9), the log2 fold change is inactive: -0.11.
On to EIF2AK3 (UniProt Q9NZJ5), for which the log2 fold change is inactive: 0.244.
Turning to ELOA (UniProt Q14241), the log2 fold change is inactive: 0.04.
For the target EPB41L1 (UniProt Q9H4G0), the log2 fold change was inactive: 0.035.
As to EPB41 isoform 4 (UniProt P11171), the log2 fold change was inactive: 0.001.
Take EEF1D isoform 3 (UniProt P29692): the log2 fold change is inactive: -0.674.
On the same count and under the same terms, the figure for EIF2B4 (UniProt Q9UI10) is inactive: -0.051; for EEF2K (UniProt O00418) it is inactive: 0.15.
